# Laboratory results reported in paper PMC5996148.
# By UniProt entry, the sequences of proteins in these tests, tags left out. Where a name states a change or a piece, a line headed by the entry shows the natural chain unless it says otherwise.
# UniProt Q96AZ6: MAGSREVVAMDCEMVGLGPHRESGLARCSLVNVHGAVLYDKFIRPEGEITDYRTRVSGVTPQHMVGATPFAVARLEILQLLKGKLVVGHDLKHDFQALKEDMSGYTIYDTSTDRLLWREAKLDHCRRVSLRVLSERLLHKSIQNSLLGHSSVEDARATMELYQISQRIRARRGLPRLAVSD
# The other results are listed elsewhere or left out. For some assays here: The exact form of the protein is not confirmed.
# Assays:
# Test in all cases: protein microarray (ProtoArray v5.0), streptavidin-Alexa Fluor 647
# Conditions in all cases: 3'-biotin; 20 mM Tris (pH 7.5), 5 mM MgCl2, 100 mM KCl, 0.1% Tween-20, A/T-rich and random oligonucleotide blockers; temperature not stated; high values mean tight binding
# [1] = test system: IL2 (human)
# [2] = test system: IL22 (human)
# [3] = test system: IL27 (human)
# [4] = test system: IL32 (human)
# [5] = test system: IL5 (human)
# [6] = test system: IL7 (human)
# [7] = test system: IL8RA (human)
# [8] = test system: ILVBL (human)
# [9] = test system: IMPDH1 (human)
# [10] = test system: INDO (human)
# [11] = test system: ING3 (human)
# [12] = test system: INTS4 (human)
# [13] = test system: INVS (human)
# [14] = biological target: T1, IPPK (UniProt Q9H8X2)
# T1 sequence: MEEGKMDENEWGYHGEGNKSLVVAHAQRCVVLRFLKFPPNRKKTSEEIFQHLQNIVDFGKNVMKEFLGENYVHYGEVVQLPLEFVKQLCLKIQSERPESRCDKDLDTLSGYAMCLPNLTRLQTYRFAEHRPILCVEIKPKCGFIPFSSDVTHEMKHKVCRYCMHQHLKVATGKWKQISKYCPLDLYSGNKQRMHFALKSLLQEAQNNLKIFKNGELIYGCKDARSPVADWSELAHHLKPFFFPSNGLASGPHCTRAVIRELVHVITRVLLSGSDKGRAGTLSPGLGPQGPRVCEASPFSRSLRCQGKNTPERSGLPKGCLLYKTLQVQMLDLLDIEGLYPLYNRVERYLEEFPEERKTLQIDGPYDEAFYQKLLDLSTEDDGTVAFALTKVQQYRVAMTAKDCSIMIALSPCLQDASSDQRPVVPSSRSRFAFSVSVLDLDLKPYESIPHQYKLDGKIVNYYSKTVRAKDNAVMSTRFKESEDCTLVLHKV
# [15] = test system: IRAK3 (human)
# [16] = test system: IRF5 (human)
# [17] = test system: IRF6 (human)
# [18] = biological target: ISG20 (UniProt Q96AZ6)
# [19] = test system: ITGB1BP3 (human)
# [20] = biological target: ITM2B (UniProt Q9Y287)
sequence,measurement,setting,value
GGTGACAGGGGTATGGGGAGGGG [G4-2 biotinylated (Ct1)],binding signal,[1],-0.364 z-score
same,binding signal,[2],-0.382 z-score
same,binding signal,[3],-0.374 z-score
same,binding signal,[4],-0.373 z-score
same,binding signal,[5],-0.394 z-score
same,binding signal,[6],-0.393 z-score
same,binding signal,[7],-0.368 z-score
same,binding signal,[8],-0.377 z-score
same,binding signal,[9],-0.376 z-score
same,binding signal,[10],-0.393 z-score
same,binding signal,[11],-0.392 z-score
same,binding signal,[12],-0.378 z-score
same,binding signal,[13],-0.388 z-score
same,binding signal,[14],3.63 z-score
same,binding signal,[15],-0.382 z-score
same,binding signal,[16],-0.371 z-score
same,binding signal,[17],-0.394 z-score
same,binding signal,[18],3.99 z-score
same,binding signal,[19],-0.398 z-score
same,binding signal,[20],-0.373 z-score

# Some of the entries so far, with tabs:
sequence	measurement	setting	value
GGTGACAGGGGTATGGGGAGGGG [G4-2 biotinylated (Ct1)]	binding signal	[8]	-0.377 z-score
same	binding signal	[9]	-0.376 z-score
